Results are given in words; binding and its absence hold for the method and conditions named. Binding can be weak; no strength is given.

This is an account of results in patent publication EP4268901A2.

Experiment [1] concerns the target cynomolgus monkey IL-2Rγc subunit (cynomolgus monkey). Kind of experiment: competition ELISA, peptide tracer. A general note: An ELISA detects its analyte on a solid surface through an enzyme-linked reagent.
For experiment [2], the target named is cynomolgus monkey IL-2Rβ subunit (cynomolgus monkey). As to the kind of experiment: competition ELISA, peptide tracer.

For GGWYPCWMAQLGELCDLDGGGGSGGVVCQDWEGVELCWQGG [IL-2Rβγc ligand having SEQ ID NO: 1263], the binding entry in experiment [1] is given as “binds”.

B1: IL-2Rβγc ligand having SEQ ID NO: 4171 (peptide)
peptide: GGGELLVDCFKVKVGELCDLFFGPAPAPAPAPAPAPAPAGVVCQDWEGVELCWQGG
As for B1, the binding result in experiment [1] and in experiment [2] was “binds” throughout.
